Results are given in words; binding and its absence hold for the method and conditions named. For some assays here: Binding seen in cells or lysates may run through a third protein. Some entries that bind do so weakly or less than the wild type. Tags and fused reporters may be left off the sequences shown.
Columns and labels:
PEX19-V5 (human) = target: T1, PEX19-V5 (human) (UniProt P40855); test: proximity ligation; Duolink PLA with anti-Myc and anti-V5 primary antibodies in fixed HeLa cells (WT or stably expressing GFP-SKL) transfected for 24 h
T1 sequence: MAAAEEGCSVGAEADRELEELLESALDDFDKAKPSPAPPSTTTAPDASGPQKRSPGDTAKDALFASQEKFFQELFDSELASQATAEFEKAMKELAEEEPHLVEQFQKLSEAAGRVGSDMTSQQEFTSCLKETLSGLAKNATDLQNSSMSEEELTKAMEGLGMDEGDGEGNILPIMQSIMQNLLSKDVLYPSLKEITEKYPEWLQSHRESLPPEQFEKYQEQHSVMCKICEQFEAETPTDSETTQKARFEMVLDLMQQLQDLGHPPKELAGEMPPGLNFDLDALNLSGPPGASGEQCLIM

Protein sequences, listed by entry. Tags and fused reporters are not part of them.
UniProt Q15388: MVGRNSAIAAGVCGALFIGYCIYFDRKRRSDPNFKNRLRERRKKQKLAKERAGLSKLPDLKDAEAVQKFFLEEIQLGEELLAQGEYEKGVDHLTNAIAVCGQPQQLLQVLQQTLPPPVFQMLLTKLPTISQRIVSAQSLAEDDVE

PEX19-3×FLAG (human) = target: T2, PEX19-3×FLAG (human) (UniProt P40855); test: co-IP; HEK293T cotransfected with PEX19-3×FLAG and MARCH5-mCherry-Myc variants, 36 h; IP of PEX19-3×FLAG
T2 sequence: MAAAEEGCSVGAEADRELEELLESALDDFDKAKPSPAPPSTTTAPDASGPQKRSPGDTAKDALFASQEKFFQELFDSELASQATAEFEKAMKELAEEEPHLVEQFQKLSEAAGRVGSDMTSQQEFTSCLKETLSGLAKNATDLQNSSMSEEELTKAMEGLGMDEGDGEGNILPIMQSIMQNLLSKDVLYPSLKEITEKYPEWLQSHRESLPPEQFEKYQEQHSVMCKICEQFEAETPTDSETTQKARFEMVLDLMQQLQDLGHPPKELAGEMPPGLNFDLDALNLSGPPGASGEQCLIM

[1] = target: T3, PEX19-3×FLAG (human), P40855; test: as above; conditions: remark: other sources report otherwise
T3 chain: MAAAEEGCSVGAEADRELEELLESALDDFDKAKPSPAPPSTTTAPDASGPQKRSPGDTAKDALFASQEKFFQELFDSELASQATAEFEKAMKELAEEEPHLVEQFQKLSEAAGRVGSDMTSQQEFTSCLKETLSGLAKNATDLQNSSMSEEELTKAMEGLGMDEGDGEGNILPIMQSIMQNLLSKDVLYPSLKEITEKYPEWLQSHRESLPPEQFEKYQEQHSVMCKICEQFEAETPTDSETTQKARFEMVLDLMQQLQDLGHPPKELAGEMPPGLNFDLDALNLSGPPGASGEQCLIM

MARCH5-Myc (human) [2] = target: T4, MARCH5-Myc (human) (UniProt Q9NX47); test: co-IP; HeLa cotransfected with MARCH5-Myc and PEX3-V5 for 18 h, with or without 10 μM MG132 for 6 h; IP and IB with anti-Myc and anti-V5
T4 sequence: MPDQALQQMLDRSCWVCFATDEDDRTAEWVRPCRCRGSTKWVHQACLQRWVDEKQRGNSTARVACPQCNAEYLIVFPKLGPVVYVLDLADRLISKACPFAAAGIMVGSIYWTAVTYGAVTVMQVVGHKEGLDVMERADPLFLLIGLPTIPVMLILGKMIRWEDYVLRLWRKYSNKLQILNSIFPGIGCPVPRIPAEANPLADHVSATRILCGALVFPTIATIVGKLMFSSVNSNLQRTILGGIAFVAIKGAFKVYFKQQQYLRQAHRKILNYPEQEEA

MARCH5-Myc (human) [3] = target: T4, MARCH5-Myc (human); test: proximity ligation; Duolink PLA with anti-Myc and anti-V5 primary antibodies in fixed HeLa cells (WT or stably expressing GFP-SKL) transfected for 24 h
[4] = target: T5, MARCH5-Myc (human), Q9NX47; test: as above; conditions: remark: other sources report otherwise
T5 chain: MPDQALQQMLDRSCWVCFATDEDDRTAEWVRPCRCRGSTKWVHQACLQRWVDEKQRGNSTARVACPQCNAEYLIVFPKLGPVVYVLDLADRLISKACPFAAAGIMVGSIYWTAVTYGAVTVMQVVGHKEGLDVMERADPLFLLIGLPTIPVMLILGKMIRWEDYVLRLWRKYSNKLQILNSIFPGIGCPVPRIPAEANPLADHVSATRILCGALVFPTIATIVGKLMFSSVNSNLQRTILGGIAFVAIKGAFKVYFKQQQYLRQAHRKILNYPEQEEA

[5] = target: T5, MARCH5-Myc (human), Q9NX47; test: co-IP; HEK293T cotransfected; IP of MARCH5-Myc (Fig. 2A, 2F; IP side not told for Fig. 2D); 50 μM MG132 for 6 h in Fig. 2D and 2F; lysis 50 mM Tris, 200 mM NaCl, 1% NP-40, pH 7.5; conditions: remark: other sources report otherwise
V5-PEX19 (human), P40855 = target: T6, V5-PEX19 (human), P40855; test: relocalisation in cells (immunofluorescence); V5-PEX19 or NLS-V5-PEX19 coexpressed with MARCH5-Myc or TOMM20-Myc in HeLa cells for 24 h; stained for Myc and V5; conditions: remark: other sources report otherwise
T6 chain: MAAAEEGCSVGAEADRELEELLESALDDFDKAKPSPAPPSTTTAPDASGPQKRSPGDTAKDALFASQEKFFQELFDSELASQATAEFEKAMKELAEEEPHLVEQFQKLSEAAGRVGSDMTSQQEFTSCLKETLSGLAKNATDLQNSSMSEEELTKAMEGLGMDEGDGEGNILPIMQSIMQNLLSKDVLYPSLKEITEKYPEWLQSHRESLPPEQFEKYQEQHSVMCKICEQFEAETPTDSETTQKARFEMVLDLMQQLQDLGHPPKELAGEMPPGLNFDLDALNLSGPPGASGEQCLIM

MARCH5-Myc (human) [6] = target: T4, MARCH5-Myc (human); test: co-IP; HEK293T cotransfected; IP of MARCH5-Myc (Fig. 2A, 2F; IP side not told for Fig. 2D); 50 μM MG132 for 6 h in Fig. 2D and 2F; lysis 50 mM Tris, 200 mM NaCl, 1% NP-40, pH 7.5

TOMM20-Myc (from UniProt Q15388 1-145)
binding (PEX19-V5 (human)): no binding

B1: MARCH5 TM region (residues 70-279)-mCherry-Myc (domain or fragment, UniProt Q9NX47 70-278)
chain: AEYLIVFPKLGPVVYVLDLADRLISKACPFAAAGIMVGSIYWTAVTYGAVTVMQVVGHKEGLDVMERADPLFLLIGLPTIPVMLILGKMIRWEDYVLRLWRKYSNKLQILNSIFPGIGCPVPRIPAEANPLADHVSATRILCGALVFPTIATIVGKLMFSSVNSNLQRTILGGIAFVAIKGAFKVYFKQQQYLRQAHRKILNYPEQEEA
binding (PEX19-3×FLAG (human)): binds

B2: MARCH5(HW)-mCherry-Myc, Q9NX47 1-278 (enzyme)
chain: MPDQALQQMLDRSCWVCFATDEDDRTAEWVRPCRCRGSTKWVWQACLQRWVDEKQRGNSTARVACPQCNAEYLIVFPKLGPVVYVLDLADRLISKACPFAAAGIMVGSIYWTAVTYGAVTVMQVVGHKEGLDVMERADPLFLLIGLPTIPVMLILGKMIRWEDYVLRLWRKYSNKLQILNSIFPGIGCPVPRIPAEANPLADHVSATRILCGALVFPTIATIVGKLMFSSVNSNLQRTILGGIAFVAIKGAFKVYFKQQQYLRQAHRKILNYPEQEEA
binding [1]: binds

B3: MARCH5-mCherry-Myc, Q9NX47 1-278 (enzyme)
chain: MPDQALQQMLDRSCWVCFATDEDDRTAEWVRPCRCRGSTKWVHQACLQRWVDEKQRGNSTARVACPQCNAEYLIVFPKLGPVVYVLDLADRLISKACPFAAAGIMVGSIYWTAVTYGAVTVMQVVGHKEGLDVMERADPLFLLIGLPTIPVMLILGKMIRWEDYVLRLWRKYSNKLQILNSIFPGIGCPVPRIPAEANPLADHVSATRILCGALVFPTIATIVGKLMFSSVNSNLQRTILGGIAFVAIKGAFKVYFKQQQYLRQAHRKILNYPEQEEA
binding [1]: binds

B4: PEX3-V5 (protein, UniProt P56589 1-373)
chain: MLRSVWNFLKRHKKKCIFLGTVLGGVYILGKYGQKKIREIQEREAAEYIAQARRQYHFESNQRTCNMTVLSMLPTLREALMQQLNSESLTALLKNRPSNKLEIWEDLKIISFTRSTVAVYSTCMLVVLLRVQLNIIGGYIYLDNAAVGKNGTTILAPPDVQQQYLSSIQHLLGDGLTELITVIKQAVQKVLGSVSLKHSLSLLDLEQKLKEIRNLVEQHKSSSWINKDGSKPLLCHYMMPDEETPLAVQACGLSPRDITTIKLLNETRDMLESPDFSTVLNTCLNRGFSRLLDNMAEFFRPTEQDLQHGNSMNSLSSVSLPLAKIIPIVNGQIHSVCSETPSHFVQDLLTMEQVKDFAANVYEAFSTPQQLEK
binding (MARCH5-Myc (human) [2]): binds
binding (MARCH5-Myc (human) [3]): binds

B5: PEX19-V5, P40855 1-299 (protein)
chain: MAAAEEGCSVGAEADRELEELLESALDDFDKAKPSPAPPSTTTAPDASGPQKRSPGDTAKDALFASQEKFFQELFDSELASQATAEFEKAMKELAEEEPHLVEQFQKLSEAAGRVGSDMTSQQEFTSCLKETLSGLAKNATDLQNSSMSEEELTKAMEGLGMDEGDGEGNILPIMQSIMQNLLSKDVLYPSLKEITEKYPEWLQSHRESLPPEQFEKYQEQHSVMCKICEQFEAETPTDSETTQKARFEMVLDLMQQLQDLGHPPKELAGEMPPGLNFDLDALNLSGPPGASGEQCLIM
binding [4]: binds
binding [5]: binds

B6: MARCH5-Myc, Q9NX47 1-278 (enzyme)
chain: MPDQALQQMLDRSCWVCFATDEDDRTAEWVRPCRCRGSTKWVHQACLQRWVDEKQRGNSTARVACPQCNAEYLIVFPKLGPVVYVLDLADRLISKACPFAAAGIMVGSIYWTAVTYGAVTVMQVVGHKEGLDVMERADPLFLLIGLPTIPVMLILGKMIRWEDYVLRLWRKYSNKLQILNSIFPGIGCPVPRIPAEANPLADHVSATRILCGALVFPTIATIVGKLMFSSVNSNLQRTILGGIAFVAIKGAFKVYFKQQQYLRQAHRKILNYPEQEEA
binding (V5-PEX19 (human), P40855): binds

B7: PEX3-3×FLAG (protein, UniProt P56589 1-373)
chain: MLRSVWNFLKRHKKKCIFLGTVLGGVYILGKYGQKKIREIQEREAAEYIAQARRQYHFESNQRTCNMTVLSMLPTLREALMQQLNSESLTALLKNRPSNKLEIWEDLKIISFTRSTVAVYSTCMLVVLLRVQLNIIGGYIYLDNAAVGKNGTTILAPPDVQQQYLSSIQHLLGDGLTELITVIKQAVQKVLGSVSLKHSLSLLDLEQKLKEIRNLVEQHKSSSWINKDGSKPLLCHYMMPDEETPLAVQACGLSPRDITTIKLLNETRDMLESPDFSTVLNTCLNRGFSRLLDNMAEFFRPTEQDLQHGNSMNSLSSVSLPLAKIIPIVNGQIHSVCSETPSHFVQDLLTMEQVKDFAANVYEAFSTPQQLEK
binding (MARCH5-Myc (human) [6]): binds

B8: PEX3(46–373)-3×FLAG (domain or fragment, UniProt P56589 46-373)
chain: AEYIAQARRQYHFESNQRTCNMTVLSMLPTLREALMQQLNSESLTALLKNRPSNKLEIWEDLKIISFTRSTVAVYSTCMLVVLLRVQLNIIGGYIYLDNAAVGKNGTTILAPPDVQQQYLSSIQHLLGDGLTELITVIKQAVQKVLGSVSLKHSLSLLDLEQKLKEIRNLVEQHKSSSWINKDGSKPLLCHYMMPDEETPLAVQACGLSPRDITTIKLLNETRDMLESPDFSTVLNTCLNRGFSRLLDNMAEFFRPTEQDLQHGNSMNSLSSVSLPLAKIIPIVNGQIHSVCSETPSHFVQDLLTMEQVKDFAANVYEAFSTPQQLEK
binding (MARCH5-Myc (human) [6]): binds
